Measured values published in publication PMC7838283.
These are yes or no findings as the source states them, for the method shown. Binding seen in cells or lysates may run through a third protein. Some results given as binding are weak or reduced against the parent protein; the word gives no strength.

Chains of the proteins cited; added tags and fusions are not shown. Lines headed by an entry give the natural chain unless they say otherwise; changes in a name come on top.
UniProt P10275: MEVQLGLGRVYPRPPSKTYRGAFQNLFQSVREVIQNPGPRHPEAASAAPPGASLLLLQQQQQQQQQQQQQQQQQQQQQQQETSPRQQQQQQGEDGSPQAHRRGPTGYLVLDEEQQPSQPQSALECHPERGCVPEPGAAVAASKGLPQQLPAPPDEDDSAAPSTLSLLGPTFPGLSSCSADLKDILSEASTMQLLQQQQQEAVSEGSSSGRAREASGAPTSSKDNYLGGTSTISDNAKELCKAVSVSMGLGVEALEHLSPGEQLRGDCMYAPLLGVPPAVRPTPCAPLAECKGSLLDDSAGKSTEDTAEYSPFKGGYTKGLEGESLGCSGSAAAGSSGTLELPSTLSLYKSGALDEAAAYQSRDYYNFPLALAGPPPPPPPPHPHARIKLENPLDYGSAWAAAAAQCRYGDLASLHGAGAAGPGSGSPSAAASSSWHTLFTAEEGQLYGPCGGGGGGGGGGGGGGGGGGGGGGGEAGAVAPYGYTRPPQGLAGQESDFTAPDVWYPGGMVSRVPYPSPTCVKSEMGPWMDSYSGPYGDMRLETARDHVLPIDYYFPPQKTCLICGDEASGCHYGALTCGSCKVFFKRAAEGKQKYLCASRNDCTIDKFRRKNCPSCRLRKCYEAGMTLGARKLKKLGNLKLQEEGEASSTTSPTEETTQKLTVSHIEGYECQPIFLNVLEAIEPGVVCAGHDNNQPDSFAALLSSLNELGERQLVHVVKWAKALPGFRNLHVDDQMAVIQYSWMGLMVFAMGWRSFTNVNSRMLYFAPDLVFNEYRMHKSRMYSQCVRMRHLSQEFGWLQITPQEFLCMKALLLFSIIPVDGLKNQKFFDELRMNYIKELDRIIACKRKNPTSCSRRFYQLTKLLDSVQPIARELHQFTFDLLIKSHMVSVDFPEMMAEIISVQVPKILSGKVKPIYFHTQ
UniProt P21333: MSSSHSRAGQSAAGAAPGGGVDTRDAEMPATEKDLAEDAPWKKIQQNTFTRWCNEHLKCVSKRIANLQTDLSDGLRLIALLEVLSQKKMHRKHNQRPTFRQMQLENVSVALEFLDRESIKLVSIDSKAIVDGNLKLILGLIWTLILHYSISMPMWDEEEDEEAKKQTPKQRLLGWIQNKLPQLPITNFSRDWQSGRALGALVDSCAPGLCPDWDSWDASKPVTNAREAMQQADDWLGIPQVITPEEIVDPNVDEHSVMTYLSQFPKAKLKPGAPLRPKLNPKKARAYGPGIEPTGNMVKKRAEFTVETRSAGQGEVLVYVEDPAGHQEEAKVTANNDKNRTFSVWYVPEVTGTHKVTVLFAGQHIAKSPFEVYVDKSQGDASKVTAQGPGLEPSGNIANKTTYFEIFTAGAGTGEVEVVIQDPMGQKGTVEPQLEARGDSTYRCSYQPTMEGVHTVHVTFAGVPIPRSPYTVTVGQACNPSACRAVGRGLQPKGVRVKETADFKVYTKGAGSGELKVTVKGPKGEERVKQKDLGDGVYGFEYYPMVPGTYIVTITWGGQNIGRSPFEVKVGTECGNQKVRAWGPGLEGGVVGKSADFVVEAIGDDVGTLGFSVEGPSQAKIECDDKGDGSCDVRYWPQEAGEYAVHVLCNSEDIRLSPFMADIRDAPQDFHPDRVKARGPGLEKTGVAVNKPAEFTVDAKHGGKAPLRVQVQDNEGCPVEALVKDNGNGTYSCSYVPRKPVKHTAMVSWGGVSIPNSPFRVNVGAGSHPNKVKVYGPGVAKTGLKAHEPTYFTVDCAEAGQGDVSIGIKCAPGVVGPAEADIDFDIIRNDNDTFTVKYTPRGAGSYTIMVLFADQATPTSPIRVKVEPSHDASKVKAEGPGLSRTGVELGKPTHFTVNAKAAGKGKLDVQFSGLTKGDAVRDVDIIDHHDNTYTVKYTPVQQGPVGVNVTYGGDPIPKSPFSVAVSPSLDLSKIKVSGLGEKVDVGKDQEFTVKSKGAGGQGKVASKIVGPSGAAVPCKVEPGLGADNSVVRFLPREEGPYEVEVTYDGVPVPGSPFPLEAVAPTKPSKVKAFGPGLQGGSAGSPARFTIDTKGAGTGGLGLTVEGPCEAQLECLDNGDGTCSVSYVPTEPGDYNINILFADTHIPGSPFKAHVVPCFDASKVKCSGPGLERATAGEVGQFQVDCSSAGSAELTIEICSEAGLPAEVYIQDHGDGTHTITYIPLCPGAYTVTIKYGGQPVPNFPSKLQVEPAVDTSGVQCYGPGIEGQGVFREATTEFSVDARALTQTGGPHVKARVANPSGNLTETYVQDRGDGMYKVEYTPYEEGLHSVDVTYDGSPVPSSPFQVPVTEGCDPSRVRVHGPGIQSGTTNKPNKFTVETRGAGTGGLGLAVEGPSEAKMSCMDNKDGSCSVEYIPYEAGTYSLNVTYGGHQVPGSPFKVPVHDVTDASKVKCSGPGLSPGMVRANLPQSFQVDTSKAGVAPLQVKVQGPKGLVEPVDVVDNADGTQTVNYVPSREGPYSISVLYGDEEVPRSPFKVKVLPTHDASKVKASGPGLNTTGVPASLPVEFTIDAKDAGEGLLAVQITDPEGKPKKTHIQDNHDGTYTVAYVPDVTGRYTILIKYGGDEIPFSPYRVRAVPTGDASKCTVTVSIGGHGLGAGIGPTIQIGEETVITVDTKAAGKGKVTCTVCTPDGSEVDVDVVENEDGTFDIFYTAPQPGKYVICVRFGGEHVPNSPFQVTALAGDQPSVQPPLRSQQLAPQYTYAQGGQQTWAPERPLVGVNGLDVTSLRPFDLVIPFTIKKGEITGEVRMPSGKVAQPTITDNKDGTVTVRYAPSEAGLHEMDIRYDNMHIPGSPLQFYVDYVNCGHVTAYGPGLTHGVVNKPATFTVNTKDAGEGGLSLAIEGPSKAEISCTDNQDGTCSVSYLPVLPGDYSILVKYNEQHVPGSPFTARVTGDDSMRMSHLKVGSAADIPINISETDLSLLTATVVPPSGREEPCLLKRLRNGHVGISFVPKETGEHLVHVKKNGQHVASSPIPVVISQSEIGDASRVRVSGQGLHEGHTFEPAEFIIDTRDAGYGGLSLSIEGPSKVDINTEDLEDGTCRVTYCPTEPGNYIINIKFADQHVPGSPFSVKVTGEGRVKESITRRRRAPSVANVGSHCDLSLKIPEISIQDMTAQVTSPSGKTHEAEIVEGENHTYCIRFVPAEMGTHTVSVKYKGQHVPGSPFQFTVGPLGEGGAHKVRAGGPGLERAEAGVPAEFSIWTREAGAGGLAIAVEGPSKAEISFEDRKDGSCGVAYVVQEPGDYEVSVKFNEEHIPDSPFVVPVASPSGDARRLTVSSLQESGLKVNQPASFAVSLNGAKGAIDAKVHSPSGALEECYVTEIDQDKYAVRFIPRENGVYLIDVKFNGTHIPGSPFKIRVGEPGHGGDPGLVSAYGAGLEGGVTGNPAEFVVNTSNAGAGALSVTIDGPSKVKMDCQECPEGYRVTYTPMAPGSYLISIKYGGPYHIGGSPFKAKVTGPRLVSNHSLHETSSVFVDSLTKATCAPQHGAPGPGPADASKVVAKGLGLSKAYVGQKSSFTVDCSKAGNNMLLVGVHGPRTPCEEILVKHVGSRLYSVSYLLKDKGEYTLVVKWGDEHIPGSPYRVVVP
UniProt P05556: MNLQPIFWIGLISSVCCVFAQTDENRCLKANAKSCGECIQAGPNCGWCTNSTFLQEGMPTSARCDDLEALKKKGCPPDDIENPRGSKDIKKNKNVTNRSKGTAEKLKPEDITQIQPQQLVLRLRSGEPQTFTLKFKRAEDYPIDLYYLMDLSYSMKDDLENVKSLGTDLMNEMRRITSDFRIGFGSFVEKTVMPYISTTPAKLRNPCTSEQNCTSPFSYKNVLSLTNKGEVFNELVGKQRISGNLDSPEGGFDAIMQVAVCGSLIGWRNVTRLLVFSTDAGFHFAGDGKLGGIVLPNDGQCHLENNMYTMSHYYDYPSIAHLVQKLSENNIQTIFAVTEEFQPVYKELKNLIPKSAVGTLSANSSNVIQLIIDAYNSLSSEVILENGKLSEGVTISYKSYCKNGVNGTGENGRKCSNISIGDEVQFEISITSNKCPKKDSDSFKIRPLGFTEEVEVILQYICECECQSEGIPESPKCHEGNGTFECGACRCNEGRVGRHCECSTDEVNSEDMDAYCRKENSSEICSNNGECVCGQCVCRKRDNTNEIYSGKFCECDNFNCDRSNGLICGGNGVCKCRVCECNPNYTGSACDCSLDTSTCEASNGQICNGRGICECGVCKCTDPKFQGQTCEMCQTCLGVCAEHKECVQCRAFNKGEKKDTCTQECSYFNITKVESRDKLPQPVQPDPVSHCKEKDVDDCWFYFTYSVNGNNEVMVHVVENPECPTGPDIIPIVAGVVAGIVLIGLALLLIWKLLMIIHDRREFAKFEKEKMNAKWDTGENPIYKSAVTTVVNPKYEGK

Columns and labels:
[1] = biological target: androgen receptor (human (endogenous in primary prostate CAFs)) (UniProt P10275); experiment: condition: only with 10 μM enzalutamide (cells challenged with 10 nM R1881); co-IP; quiescent CAFs challenged 10 min with 10 nM R1881 in the presence of 10 μM enzalutamide; lysates immune-precipitated with anti-AR, blotted for FlnA
[2] = biological target: androgen receptor (human (endogenous in primary prostate CAFs)) (UniProt P10275); experiment: co-IP; lysates of quiescent AR-positive primary prostate CAFs (pooled), unchallenged or challenged 10 min with 10 nM R1881, with or without 10 nM Rh-2025u or 10 μM enzalutamide; immune-precipitation with mouse monoclonal anti-AR (441), Western blot; control IgG

With filamin A (from UniProt P21333 1-2647) the binding [1] was “no binding” and the binding [2] was “binds”.
For “β1 integrin (from UniProt P05556 21-798) (receptor)”, the binding [2] was “binds”.
